According to publication PMC5534435:
These are yes or no findings as the source states them, for the method shown. In cells and extracts the contact can be indirect. Some binding calls cover weakened binding; strength is not graded here. Tags and fused reporters may be left off the sequences shown.

The chains behind the UniProt entries cited, without tags or fusion partners. Residues count along the entry.
UniProt O55005, residues 26-1651: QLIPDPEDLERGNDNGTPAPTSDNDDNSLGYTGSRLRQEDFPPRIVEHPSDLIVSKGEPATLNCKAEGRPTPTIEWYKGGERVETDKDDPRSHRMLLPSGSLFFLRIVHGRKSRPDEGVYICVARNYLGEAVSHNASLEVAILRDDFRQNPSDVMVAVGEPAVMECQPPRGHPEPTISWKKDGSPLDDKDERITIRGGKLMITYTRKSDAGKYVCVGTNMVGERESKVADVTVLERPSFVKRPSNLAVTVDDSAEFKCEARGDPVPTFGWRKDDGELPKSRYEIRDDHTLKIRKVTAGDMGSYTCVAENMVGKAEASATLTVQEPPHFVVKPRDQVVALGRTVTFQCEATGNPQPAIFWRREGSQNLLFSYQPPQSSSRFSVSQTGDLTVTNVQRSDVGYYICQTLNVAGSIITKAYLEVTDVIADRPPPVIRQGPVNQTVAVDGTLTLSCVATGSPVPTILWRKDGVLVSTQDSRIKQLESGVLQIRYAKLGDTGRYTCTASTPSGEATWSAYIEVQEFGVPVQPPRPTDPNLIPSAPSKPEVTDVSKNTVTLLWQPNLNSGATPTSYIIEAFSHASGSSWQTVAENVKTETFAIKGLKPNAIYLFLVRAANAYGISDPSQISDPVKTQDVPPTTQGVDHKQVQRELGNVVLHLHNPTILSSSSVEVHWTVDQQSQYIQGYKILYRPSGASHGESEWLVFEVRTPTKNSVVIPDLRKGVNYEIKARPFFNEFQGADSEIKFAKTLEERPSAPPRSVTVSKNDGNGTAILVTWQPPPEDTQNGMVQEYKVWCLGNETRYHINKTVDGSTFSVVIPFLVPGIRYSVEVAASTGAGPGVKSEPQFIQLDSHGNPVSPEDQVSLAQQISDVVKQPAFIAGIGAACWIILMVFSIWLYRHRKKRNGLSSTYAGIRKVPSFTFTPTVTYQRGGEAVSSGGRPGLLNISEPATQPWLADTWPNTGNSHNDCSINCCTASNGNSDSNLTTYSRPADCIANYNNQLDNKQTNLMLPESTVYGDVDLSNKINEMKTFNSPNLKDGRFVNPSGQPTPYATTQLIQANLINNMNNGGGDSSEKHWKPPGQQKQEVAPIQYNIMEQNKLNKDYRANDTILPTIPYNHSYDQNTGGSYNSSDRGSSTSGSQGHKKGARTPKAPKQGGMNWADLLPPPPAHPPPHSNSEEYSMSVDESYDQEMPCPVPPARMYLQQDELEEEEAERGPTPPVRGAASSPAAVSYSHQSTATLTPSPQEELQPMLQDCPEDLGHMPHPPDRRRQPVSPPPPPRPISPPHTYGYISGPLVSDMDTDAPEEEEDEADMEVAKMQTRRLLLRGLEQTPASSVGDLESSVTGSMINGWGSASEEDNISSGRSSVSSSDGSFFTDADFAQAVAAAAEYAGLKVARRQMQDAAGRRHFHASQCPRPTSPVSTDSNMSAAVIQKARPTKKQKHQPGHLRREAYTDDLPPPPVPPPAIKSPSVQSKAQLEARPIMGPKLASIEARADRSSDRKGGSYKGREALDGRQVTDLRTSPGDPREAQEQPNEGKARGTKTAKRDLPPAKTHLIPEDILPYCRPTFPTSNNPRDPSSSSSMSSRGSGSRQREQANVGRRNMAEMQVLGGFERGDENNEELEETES
UniProt Q13153: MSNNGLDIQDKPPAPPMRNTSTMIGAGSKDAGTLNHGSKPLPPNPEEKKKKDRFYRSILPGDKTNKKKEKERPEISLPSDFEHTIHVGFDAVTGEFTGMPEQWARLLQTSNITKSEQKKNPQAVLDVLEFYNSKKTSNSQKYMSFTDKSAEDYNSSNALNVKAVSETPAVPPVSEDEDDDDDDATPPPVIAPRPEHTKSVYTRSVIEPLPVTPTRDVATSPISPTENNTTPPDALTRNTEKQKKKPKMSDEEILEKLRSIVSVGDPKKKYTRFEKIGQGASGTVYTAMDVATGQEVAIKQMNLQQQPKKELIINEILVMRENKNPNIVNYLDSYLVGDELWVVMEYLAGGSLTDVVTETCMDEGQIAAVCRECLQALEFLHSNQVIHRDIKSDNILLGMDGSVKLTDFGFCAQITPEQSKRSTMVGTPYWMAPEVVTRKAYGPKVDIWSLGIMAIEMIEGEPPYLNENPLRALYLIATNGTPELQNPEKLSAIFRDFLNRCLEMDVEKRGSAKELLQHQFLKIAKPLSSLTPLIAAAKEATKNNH

B1: Human Slit2 tagged with c-Myc (Slit2-Myc) (ligand, UniProt O94813 31-1529)
chain: QCSCSGSTVDCHGLALRSVPRNIPRNTERLDLNGNNITRITKTDFAGLRHLRVLQLMENKISTIERGAFQDLKELERLRLNRNHLQLFPELLFLGTAKLYRLDLSENQIQAIPRKAFRGAVDIKNLQLDYNQISCIEDGAFRALRDLEVLTLNNNNITRLSVASFNHMPKLRTFRLHSNNLYCDCHLAWLSDWLRQRPRVGLYTQCMGPSHLRGHNVAEVQKREFVCSGHQSFMAPSCSVLHCPAACTCSNNIVDCRGKGLTEIPTNLPETITEIRLEQNTIKVIPPGAFSPYKKLRRIDLSNNQISELAPDAFQGLRSLNSLVLYGNKITELPKSLFEGLFSLQLLLLNANKINCLRVDAFQDLHNLNLLSLYDNKLQTIAKGTFSPLRAIQTMHLAQNPFICDCHLKWLADYLHTNPIETSGARCTSPRRLANKRIGQIKSKKFRCSAKEQYFIPGTEDYRSKLSGDCFADLACPEKCRCEGTTVDCSNQKLNKIPEHIPQYTAELRLNNNEFTVLEATGIFKKLPQLRKINFSNNKITDIEEGAFEGASGVNEILLTSNRLENVQHKMFKGLESLKTLMLRSNRITCVGNDSFIGLSSVRLLSLYDNQITTVAPGAFDTLHSLSTLNLLANPFNCNCYLAWLGEWLRKKRIVTGNPRCQKPYFLKEIPIQDVAIQDFTCDDGNDDNSCSPLSRCPTECTCLDTVVRCSNKGLKVLPKGIPRDVTELYLDGNQFTLVPKELSNYKHLTLIDLSNNRISTLSNQSFSNMTQLLTLILSYNRLRCIPPRTFDGLKSLRLLSLHGNDISVVPEGAFNDLSALSHLAIGANPLYCDCNMQWLSDWVKSEYKEPGIARCAGPGEMADKLLLTTPSKKFTCQGPVDVNILAKCNPCLSNPCKNDGTCNSDPVDFYRCTCPYGFKGQDCDVPIHACISNPCKHGGTCHLKEGEEDGFWCICADGFEGENCEVNVDDCEDNDCENNSTCVDGINNYTCLCPPEYTGELCEEKLDFCAQDLNPCQHDSKCILTPKGFKCDCTPGYVGEHCDIDFDDCQDNKCKNGAHCTDAVNGYTCICPEGYSGLFCEFSPPMVLPRTSPCDNFDCQNGAQCIVRINEPICQCLPGYQGEKCEKLVSVNFINKESYLQIPSAKVRPQTNITLQIATDEDSGILLYKGDKDHIAVELYRGRVRASYDTGSHPASAIYSVETINDGNFHIVELLALDQSLSLSVDGGNPKIITNLSKQSTLNFDSPLYVGGMPGKSNVASLRQAPGQNGTSFHGCIRNLYINSELQDFQKVPMQTGILPGCEPCHKKVCAHGTCQPSSQAGFTCECQEGWMGPLCDQRTNDPCLGNKCVHGTCLPINAFSYSCKCLEGHGGVLCDEEEDLFNPCQAIKCKHGKCRLSGLGQPYCECSSGYTGDSCDREISCRGERIRDYYQKQQGYAACQTTKKVSRLECRGGCAGGQCCGPLRSKRRKYSFECTDGSSFVDEVEKVVKCGCTRCVS
B2: HA-Fe65 (protein, UniProt O00213 1-710)
chain: MSVPSSLSQSAINANSHGGPALSLPLPLHAAHNQLLNAKLQATAVGPKDLRSAMGEGGGPEPGPANAKWLKEGQNQLRRAATAHRDQNRNVTLTLAEEASQEPEMAPLGPKGLIHLYSELELSAHNAANRGLRGPGLIISTQEQGPDEGEEKAAGEAEEEEEDDDDEEEEEDLSSPPGLPEPLESVEAPPRPQALTDGPREHSKSASLLFGMRNSAASDEDSSWATLSQGSPSYGSPEDTDSFWNPNAFETDSDLPAGWMRVQDTSGTYYWHIPTGTTQWEPPGRASPSQGSSPQEESQLTWTGFAHGEGFEDGEFWKDEPSDEAPMELGLKEPEEGTLTFPAQSLSPEPLPQEEEKLPPRNTNPGIKCFAVRSLGWVEMTEEELAPGRSSVAVNNCIRQLSYHKNNLHDPMSGGWGEGKDLLLQLEDETLKLVEPQSQALLHAQPIISIRVWGVGRDSGRERDFAYVARDKLTQMLKCHVFRCEAPAKNIATSLHEICSKIMAERRNARCLVNGLSLDHSKLVDVPFQVEFPAPKNELVQKFQVYYLGNVPVAKPVGVDVINGALESVLSSSSREQWTPSHVSVAPATLTILHQQTEAVLGECRVRFLSFLAVGRDVHTFAFIMAAGPASFCCHMFWCEPNAASLSEAVQAACMLRYQKCLDARSQASTSCLPAPPAESVARRVGWTVRRGVQSLWGSLKPKRLGAHTP

Tests used:
[1] = target: Full-length (FL) human APP695 (human) (UniProt P05067); assay: co-IP; HEK293 cells transfected with the two constructs (single transfections as controls); IP with APPc, anti-HA or anti-Myc antibody, Western blot
[2] = target: Rat Robo1 tagged with the hemagglutinin (Robo1-HA) (rat) (UniProt O55005); assay: as above
[3] = target: GST-APPE1 fusion protein (amino acids 22-189 of APP extracellular E1 domain) (UniProt P05067); assay: pull-down; purified GST or GST-APPE1 on glutathione agarose beads incubated with CM from HEK293 cells overexpressing Myc-tagged Slit2, 3 h at 4°C; anti-Myc Western blot; only the target purified
Myc-Pak1 = Myc-Pak1 (UniProt Q13153); assay: co-IP; HEK293 cells transfected with the two constructs (single transfections as controls); IP with APPc, anti-HA or anti-Myc antibody, Western blot

| Binder | binding [1] | binding [2] | binding [3] | binding (Myc-Pak1) |
| --- | --- | --- | --- | --- |
| B1 | binds | binds | binds | – |
| B2 | – | – | – | binds |
